Experimental data as given in the supplement of paper PMC5836539.
± gives the standard deviation of the averaged measurements. This data set is noisy: repeats of one test often differ as much as different tests do.

The chains behind the UniProt entries cited, without tags or fusion partners. Where a name states a change or a piece, a line headed by the entry shows the natural chain unless it says otherwise.
UniProt P16383: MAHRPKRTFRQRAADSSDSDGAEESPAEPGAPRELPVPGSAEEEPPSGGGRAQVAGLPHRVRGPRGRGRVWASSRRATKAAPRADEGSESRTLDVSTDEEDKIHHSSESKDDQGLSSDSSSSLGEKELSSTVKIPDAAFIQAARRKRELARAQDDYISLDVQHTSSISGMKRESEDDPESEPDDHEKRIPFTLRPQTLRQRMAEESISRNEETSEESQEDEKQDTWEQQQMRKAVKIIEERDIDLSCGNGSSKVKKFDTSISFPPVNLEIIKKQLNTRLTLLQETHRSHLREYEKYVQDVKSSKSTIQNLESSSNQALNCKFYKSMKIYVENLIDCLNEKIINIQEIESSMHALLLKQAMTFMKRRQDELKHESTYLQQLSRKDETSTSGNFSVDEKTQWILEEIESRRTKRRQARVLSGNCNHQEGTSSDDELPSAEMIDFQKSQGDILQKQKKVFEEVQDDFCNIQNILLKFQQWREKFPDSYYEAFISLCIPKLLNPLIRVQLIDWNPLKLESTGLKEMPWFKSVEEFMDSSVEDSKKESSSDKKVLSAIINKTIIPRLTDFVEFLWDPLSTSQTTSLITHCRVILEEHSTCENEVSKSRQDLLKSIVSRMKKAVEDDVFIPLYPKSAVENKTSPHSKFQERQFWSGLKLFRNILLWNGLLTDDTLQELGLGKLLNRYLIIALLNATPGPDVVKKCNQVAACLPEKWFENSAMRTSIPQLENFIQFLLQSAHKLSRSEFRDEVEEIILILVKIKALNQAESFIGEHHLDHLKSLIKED
UniProt P26368, whole entry, looked up: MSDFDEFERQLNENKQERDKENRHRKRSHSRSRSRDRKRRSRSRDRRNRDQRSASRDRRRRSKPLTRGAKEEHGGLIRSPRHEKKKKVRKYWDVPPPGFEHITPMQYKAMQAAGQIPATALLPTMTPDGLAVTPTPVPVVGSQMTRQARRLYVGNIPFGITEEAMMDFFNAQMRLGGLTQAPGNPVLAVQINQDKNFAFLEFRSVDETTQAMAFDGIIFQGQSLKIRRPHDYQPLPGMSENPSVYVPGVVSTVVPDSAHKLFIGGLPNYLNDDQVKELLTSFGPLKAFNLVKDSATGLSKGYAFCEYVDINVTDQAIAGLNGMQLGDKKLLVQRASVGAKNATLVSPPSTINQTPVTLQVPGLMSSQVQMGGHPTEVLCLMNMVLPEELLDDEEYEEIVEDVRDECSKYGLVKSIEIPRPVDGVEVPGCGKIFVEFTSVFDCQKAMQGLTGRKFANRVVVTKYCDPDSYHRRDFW
UniProt P35580, whole entry, looked up: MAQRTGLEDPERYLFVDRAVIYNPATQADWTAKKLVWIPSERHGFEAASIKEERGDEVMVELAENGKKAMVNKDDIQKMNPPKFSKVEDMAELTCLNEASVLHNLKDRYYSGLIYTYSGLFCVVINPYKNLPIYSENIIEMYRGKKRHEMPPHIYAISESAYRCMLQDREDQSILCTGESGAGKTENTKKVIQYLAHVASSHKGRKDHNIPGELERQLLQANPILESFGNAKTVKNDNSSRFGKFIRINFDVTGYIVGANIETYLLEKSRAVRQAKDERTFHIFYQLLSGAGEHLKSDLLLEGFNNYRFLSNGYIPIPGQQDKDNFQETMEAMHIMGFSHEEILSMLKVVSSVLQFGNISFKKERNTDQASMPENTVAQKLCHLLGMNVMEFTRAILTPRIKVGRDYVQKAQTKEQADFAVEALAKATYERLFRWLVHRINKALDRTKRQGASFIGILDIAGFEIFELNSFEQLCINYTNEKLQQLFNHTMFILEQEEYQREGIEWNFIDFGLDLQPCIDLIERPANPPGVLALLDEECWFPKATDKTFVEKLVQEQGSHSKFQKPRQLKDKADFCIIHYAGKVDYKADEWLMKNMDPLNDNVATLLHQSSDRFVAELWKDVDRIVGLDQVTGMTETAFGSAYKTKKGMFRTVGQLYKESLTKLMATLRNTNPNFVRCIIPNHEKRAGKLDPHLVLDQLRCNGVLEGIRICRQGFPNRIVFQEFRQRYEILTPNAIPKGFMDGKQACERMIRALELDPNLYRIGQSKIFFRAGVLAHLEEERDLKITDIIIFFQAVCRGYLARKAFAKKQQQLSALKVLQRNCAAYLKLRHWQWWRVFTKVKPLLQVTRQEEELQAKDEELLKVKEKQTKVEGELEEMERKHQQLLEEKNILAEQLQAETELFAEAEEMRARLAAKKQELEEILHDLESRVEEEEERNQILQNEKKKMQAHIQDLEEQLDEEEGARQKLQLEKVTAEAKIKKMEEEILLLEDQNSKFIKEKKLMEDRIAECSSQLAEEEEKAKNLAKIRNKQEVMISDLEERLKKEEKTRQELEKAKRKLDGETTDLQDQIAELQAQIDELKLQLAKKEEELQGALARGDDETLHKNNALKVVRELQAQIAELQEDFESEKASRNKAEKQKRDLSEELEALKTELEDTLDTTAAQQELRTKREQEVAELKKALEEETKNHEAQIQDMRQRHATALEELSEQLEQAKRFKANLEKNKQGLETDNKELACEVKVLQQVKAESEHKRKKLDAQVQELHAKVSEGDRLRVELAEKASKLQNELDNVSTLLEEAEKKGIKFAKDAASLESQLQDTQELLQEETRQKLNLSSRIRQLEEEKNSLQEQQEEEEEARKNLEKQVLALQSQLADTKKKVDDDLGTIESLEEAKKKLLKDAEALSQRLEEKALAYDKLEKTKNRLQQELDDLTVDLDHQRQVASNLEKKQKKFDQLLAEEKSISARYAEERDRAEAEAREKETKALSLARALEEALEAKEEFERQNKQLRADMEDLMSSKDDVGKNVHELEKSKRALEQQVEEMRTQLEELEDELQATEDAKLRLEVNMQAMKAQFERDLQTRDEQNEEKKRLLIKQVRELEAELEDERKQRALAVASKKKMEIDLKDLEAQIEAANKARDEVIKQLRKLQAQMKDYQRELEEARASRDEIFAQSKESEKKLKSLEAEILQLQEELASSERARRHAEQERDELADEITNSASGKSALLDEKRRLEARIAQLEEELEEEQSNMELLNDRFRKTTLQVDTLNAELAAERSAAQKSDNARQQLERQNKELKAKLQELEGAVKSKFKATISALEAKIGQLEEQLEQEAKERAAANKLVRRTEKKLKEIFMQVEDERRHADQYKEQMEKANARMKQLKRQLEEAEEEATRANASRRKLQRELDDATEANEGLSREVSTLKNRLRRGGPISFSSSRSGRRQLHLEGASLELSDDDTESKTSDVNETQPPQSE
UniProt P48634: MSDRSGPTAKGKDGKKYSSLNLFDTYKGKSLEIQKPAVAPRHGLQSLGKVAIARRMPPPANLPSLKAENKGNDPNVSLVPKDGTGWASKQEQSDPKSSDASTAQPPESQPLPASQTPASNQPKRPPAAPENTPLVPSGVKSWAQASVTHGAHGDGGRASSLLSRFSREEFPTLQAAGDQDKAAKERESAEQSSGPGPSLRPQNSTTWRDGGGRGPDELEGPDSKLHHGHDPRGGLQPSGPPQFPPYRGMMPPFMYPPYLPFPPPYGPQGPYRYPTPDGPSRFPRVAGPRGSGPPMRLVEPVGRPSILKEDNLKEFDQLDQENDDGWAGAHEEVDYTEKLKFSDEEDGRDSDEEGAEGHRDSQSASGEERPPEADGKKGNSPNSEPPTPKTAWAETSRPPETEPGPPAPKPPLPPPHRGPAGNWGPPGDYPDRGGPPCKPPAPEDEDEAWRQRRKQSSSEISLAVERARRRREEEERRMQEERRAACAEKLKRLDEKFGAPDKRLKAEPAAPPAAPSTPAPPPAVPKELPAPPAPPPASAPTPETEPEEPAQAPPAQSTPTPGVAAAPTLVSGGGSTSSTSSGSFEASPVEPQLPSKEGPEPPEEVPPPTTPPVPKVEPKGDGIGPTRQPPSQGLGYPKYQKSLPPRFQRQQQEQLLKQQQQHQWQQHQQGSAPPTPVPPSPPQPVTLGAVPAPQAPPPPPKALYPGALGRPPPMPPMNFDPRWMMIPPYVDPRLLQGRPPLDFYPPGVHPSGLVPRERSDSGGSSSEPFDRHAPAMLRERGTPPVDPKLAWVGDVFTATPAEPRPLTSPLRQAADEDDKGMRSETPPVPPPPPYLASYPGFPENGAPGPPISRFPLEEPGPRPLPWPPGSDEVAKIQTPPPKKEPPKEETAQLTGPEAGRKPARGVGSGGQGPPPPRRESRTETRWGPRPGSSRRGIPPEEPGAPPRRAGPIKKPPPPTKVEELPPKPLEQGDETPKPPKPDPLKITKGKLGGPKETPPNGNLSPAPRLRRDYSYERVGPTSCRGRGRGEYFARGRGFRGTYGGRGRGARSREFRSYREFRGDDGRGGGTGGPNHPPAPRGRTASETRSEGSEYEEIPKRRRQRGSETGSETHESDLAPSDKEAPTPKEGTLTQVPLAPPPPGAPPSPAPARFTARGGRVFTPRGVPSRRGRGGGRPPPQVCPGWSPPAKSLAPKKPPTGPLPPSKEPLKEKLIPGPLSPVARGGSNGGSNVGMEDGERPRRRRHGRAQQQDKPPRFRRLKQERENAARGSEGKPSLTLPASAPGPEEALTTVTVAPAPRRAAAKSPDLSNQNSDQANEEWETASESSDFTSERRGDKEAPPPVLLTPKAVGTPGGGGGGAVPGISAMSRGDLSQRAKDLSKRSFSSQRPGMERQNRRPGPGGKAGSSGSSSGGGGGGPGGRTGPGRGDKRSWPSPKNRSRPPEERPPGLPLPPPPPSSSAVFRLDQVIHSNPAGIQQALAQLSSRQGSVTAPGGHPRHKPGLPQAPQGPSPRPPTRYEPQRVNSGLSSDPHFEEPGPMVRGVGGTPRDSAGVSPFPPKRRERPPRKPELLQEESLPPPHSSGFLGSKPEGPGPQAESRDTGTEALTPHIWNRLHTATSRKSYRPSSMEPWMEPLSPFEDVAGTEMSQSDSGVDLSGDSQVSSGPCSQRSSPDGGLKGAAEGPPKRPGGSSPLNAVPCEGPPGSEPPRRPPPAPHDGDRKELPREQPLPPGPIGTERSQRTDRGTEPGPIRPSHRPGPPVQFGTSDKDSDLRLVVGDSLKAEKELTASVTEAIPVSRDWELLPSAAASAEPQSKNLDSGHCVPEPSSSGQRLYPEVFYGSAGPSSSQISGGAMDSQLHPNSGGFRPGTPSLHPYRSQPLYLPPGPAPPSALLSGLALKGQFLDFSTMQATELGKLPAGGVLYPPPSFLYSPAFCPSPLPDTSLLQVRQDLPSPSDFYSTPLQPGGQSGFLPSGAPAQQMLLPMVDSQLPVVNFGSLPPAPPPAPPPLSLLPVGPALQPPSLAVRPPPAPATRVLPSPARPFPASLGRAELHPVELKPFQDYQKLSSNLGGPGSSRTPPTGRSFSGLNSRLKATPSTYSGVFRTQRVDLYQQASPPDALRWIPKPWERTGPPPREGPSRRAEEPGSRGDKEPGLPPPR
UniProt P51812, whole entry, looked up: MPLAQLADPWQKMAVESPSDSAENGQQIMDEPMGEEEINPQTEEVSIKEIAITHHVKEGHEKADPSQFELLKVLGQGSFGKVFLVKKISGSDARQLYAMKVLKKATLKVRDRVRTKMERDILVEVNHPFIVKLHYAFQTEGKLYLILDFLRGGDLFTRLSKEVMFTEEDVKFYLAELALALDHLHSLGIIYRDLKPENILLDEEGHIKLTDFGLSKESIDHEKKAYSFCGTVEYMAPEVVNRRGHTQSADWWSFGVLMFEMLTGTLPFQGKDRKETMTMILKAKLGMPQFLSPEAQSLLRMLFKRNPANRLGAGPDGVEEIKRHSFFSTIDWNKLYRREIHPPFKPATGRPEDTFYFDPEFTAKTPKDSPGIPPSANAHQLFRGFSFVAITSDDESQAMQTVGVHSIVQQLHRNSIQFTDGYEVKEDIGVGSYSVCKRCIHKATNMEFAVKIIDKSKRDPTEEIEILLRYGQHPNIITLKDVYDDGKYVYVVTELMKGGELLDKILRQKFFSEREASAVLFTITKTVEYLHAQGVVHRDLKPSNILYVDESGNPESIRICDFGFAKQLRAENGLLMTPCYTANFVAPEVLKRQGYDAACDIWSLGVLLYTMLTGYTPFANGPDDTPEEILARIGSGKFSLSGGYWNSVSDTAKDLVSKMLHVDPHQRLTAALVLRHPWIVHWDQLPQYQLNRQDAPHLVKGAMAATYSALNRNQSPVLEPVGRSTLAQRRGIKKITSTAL
UniProt P56693: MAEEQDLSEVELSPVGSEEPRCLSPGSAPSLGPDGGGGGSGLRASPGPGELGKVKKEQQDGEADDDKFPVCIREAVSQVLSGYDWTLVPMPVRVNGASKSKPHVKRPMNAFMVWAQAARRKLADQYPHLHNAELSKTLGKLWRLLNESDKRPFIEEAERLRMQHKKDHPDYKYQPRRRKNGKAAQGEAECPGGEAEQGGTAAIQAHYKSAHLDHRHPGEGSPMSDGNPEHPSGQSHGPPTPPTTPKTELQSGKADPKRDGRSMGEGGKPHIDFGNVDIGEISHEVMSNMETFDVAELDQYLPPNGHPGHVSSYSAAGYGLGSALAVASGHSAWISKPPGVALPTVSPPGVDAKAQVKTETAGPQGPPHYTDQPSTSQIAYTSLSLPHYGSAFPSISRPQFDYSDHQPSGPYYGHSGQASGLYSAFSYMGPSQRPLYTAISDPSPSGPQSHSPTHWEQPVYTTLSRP

Key:
XL888 [1] = compound: T1, CC[C@@H](C)Nc1cc(C(=O)N[C@H]2C[C@H]3CC[C@@H](C2)N3c2ccc(C(=O)C3CC3)cn2)c(C)cc1C(N)=O [XL888]; experiment: phosphopeptide melting temperature shift (XL888 minus DMSO); higher = stabilised by drug treatment; settings: 100 µM; treatment time 2 h; layout: intact cells; SK-Mel 24
Method: (§1)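 Phospho-TPP in intact SK-Mel 24 cells treated with 100 uM XL888 or DMSO for 2 h, heated at 10 temperatures (37-67 C) for 3 min, soluble fraction TMT10plex-labelled and TiO2 phospho-enriched. Melting curves were fitted per phosphopeptide; the value is the melting point difference (drug minus vehicle) in each of two biological replicates.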

XL888 [2] = compound: T1, XL888; experiment: as above; settings: 100 µM; treatment time 2 h; layout: intact cells; SK-Mel 28
Method: as §1, with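 “28” for “24”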

Target | phosphopeptide melting temperature shift (XL888 [1]) | phosphopeptide melting temperature shift (XL888 [2])
UniProt P11137-3_phosphosite_1778 (phosphosite position: 1778) | 1.53 °C | 2.67 ± 1.5 °C
UniProt P16383_phosphosite_180 (phosphosite position: 180) | -0.0996 °C | 0.097 ± 1.9 °C
UniProt P17812_phosphosite_562 (phosphosite position: 562) | -3.08 °C | -1.72 °C
UniProt P17812_phosphosite_575 (phosphosite position: 575) | -1 °C | 1.05 ± 0.084 °C
UniProt P21127-9_phosphosite_81 (phosphosite position: 81) | 2.03 °C | 3.38 ± 2 °C
UniProt P21127-9_phosphosite_236 (phosphosite position: 236) | 3.24 °C | 2.62 °C
UniProt P21127-9_phosphosite_542 (phosphosite position: 542) | 1.21 ± 0.7 °C | 2.812 ± 0.018 °C
UniProt P21333-2_phosphosite_2144 (phosphosite position: 2144) | 0.549 ± 0.084 °C | 0.724 ± 0.22 °C
UniProt P21359-2_phosphosite_2522 (phosphosite position: 2522) | 0.11 ± 0.16 °C | -0.038 °C
UniProt P25325-2_phosphosite_15 (phosphosite position: 15) | 0.795 °C | 1.32 °C
UniProt P26368-2_phosphosite_79 (phosphosite position: 79) | 1.353 ± 0.012 °C | -1.3 ± 0.27 °C
UniProt P26639_phosphosite_8 (phosphosite position: 8) | 0.215 °C | 0.462 °C
UniProt P29590-2_phosphosite_527 (phosphosite position: 527) | 2.36 °C | 0.409 ± 0.4 °C
UniProt P29590-4_phosphosite_527 (phosphosite position: 527) | 2.36 °C | 1.99 ± 1.7 °C
UniProt P33316-2_phosphosite_11 (phosphosite position: 11) | -0.287 °C | 1.45 ± 0.58 °C
UniProt P35580-2_phosphosite_1972 (phosphosite position: 1972) | -0.28 ± 0.022 °C | 1 ± 0.52 °C
UniProt P35606-2_phosphosite_830 (phosphosite position: 830) | 0.311 ± 0.25 °C | 0.421 ± 0.4 °C
UniProt P36507_phosphosite_394 (phosphosite position: 394) | -1.16 °C | -0.783 °C
UniProt P40763-2_phosphosite_726 (phosphosite position: 726) | 1.71 °C | -1.2 ± 1.5 °C
UniProt P46379-2_phosphosite_958 (phosphosite position: 958) | -0.271 °C | 2.05 °C
UniProt P46937-5_phosphosite_109 (phosphosite position: 109) | 4.08 °C | 6.85 °C
UniProt P48634_phosphosite_1219 (phosphosite position: 1219) | 0.861 ± 1.3 °C | 0.671 °C
UniProt P51812_phosphosite_227 (phosphosite position: 227) | -0.405 °C | -0.337 ± 0.53 °C
UniProt P51812_phosphosite_369 (phosphosite position: 369) | 0.818 °C | 0.307 ± 0.55 °C
UniProt P52594-2_phosphosite_181 (phosphosite position: 181) | 1.9 °C | 1.97 °C
UniProt P52948-6_phosphosite_888 (phosphosite position: 888) | 0.492 °C | 0.717 °C
UniProt P56693_phosphosite_24 (phosphosite position: 24) | 3.41 °C | 2.54 ± 0.79 °C
UniProt P56693_phosphosite_45 (phosphosite position: 45) | 0.759 ± 0.92 °C | 0.165 ± 0.94 °C

Exported in CSV form: entries from further up.
Target,phosphopeptide melting temperature shift (XL888 [1]),phosphopeptide melting temperature shift (XL888 [2])
UniProt P21127-9_phosphosite_236 (phosphosite position: 236),3.24 °C,2.62 °C
UniProt P21333-2_phosphosite_2144 (phosphosite position: 2144),0.549 ± 0.084 °C,0.724 ± 0.22 °C
UniProt P26639_phosphosite_8 (phosphosite position: 8),0.215 °C,0.462 °C
UniProt P29590-4_phosphosite_527 (phosphosite position: 527),2.36 °C,1.99 ± 1.7 °C
UniProt P33316-2_phosphosite_11 (phosphosite position: 11),-0.287 °C,1.45 ± 0.58 °C
UniProt P51812_phosphosite_227 (phosphosite position: 227),-0.405 °C,-0.337 ± 0.53 °C
UniProt P56693_phosphosite_45 (phosphosite position: 45),0.759 ± 0.92 °C,0.165 ± 0.94 °C
